PubChem BioAssay AID504774 | Drosophila RNAi Screening Center – 2011
The screen tested about 23,000 reagents; this is an unselected part of those that have a named target and a result. 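Values are quantile-normalised luminescence on an arbitrary scale; higher means more cells surviving MMS.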 Names joined by + are all predicted targets of the reagent.

- Purpose: 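Genes required for cells to withstand methyl methanesulphonate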 (primary screen)
- Cell system: Drosophila Kc167 cells
- Reagents: long dsRNA against Drosophila genes, about 0.25 µg dsRNA per well
- Time to read-out: about 6 days: 3 days knock-down, then 3 days with or without MMS
- Treatment: methyl methanesulphonate 0.004% (w/v) for 3 days after knock-down
- Detection: 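ATP-dependent luminescence as a measure of live cells in MMS-exposed wells, quantile normalised within each plate, with replicate values also given as a mean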
- Scale: mean viability with MMS and viability with MMS: higher = more surviving cells after MMS

no.	Gene	amplicon	mean viability with MMS	viability with MMS, replicate 1	viability with MMS, replicate 2
1	Br140	DRSC06755	3.14e6	3.50e6	2.87e6
2	PTPMT1	DRSC14235	3.66e6	4.15e6	4.15e6
3	Gr93c	DRSC14587	3.59e6	4.01e6	4.13e6
4	CG5235	DRSC10494	3.65e6	4.10e6	4.14e6
5	CR32011 + CR32010 + PlexB + 1 more	DRSC21664	3.54e6	4.05e6	4.00e6
6	hiw	DRSC20338	3.75e6	4.22e6	4.16e6
7	hiw	DRSC20339	3.48e6	3.98e6	3.91e6
8	CG13314	DRSC09985	3.43e6	3.88e6	3.88e6
9	Mtr4	DRSC03560	3.18e6	3.44e6	3.72e6
10	IFT46	DRSC02462	3.57e6	4.04e6	4.07e6
11	Prosalpha4T1	DRSC16800	3.49e6	3.87e6	4.06e6
12	Idgf6	DRSC07360	3.51e6	3.99e6	3.94e6
13	Ssl1	DRSC11634	3.31e6	3.75e6	3.73e6
14	CG3281	DRSC15470	3.53e6	3.95e6	4.05e6
15	Npc1b	DRSC20488	3.46e6	3.96e6	3.92e6
16	CG4983	DRSC02799	3.59e6	4.15e6	4.03e6
17	gukh	DRSC14768	3.63e6	4.10e6	4.12e6
18	gukh	DRSC15806	3.58e6	4.12e6	3.99e6
19	gukh	DRSC15944	3.76e6	4.24e6	4.21e6
20	Atg18b	DRSC03108	3.55e6	4.21e6	4.00e6
21	CG15185	DRSC12565	3.58e6	4.06e6	4.07e6
22	CR11235	DRSC20480	3.52e6	3.99e6	4.02e6
23	CG6216	DRSC10606	3.63e6	4.04e6	4.14e6
24	Adgf-D	DRSC16521	3.54e6	4.12e6	3.92e6
25	Ir47a	DRSC06215	3.63e6	4.05e6	4.12e6
26	DZIP1	DRSC14620	3.32e6	3.74e6	3.72e6
27	CG4815	DRSC15653	3.75e6	4.30e6	4.17e6
28	Karybeta3	DRSC12355	3.32e6	3.77e6	3.72e6
29	mle	DRSC04921	3.55e6	4.01e6	4.07e6
30	hpRNA:CR32205	DRSC09890	3.62e6	4.06e6	4.14e6
31	zetaCOP	DRSC11412	3.43e6	3.97e6	3.76e6
32	CG17219	DRSC00486	3.50e6	4.11e6	3.84e6
33	jb	DRSC20531	3.56e6	4.11e6	3.97e6
34	PPP1R15	DRSC04422	2.62e6	3.39e6	2.17e6
35	Ref1	DRSC12497	3.59e6	4.05e6	4.13e6
36	Ref1	DRSC22387	3.04e6	3.71e6	3.87e6
37	CG12126	DRSC06103	3.65e6	4.15e6	4.05e6

A portion from the list above, as a working copy:
no.	Gene	amplicon	mean viability with MMS	viability with MMS, replicate 1	viability with MMS, replicate 2
13	Ssl1	DRSC11634	3.31e6	3.75e6	3.73e6
14	CG3281	DRSC15470	3.53e6	3.95e6	4.05e6
15	Npc1b	DRSC20488	3.46e6	3.96e6	3.92e6
16	CG4983	DRSC02799	3.59e6	4.15e6	4.03e6
17	gukh	DRSC14768	3.63e6	4.10e6	4.12e6
18	gukh	DRSC15806	3.58e6	4.12e6	3.99e6
19	gukh	DRSC15944	3.76e6	4.24e6	4.21e6

The results go on:
no.	Gene	amplicon	mean viability with MMS	viability with MMS, replicate 1	viability with MMS, replicate 2
38	CG15445	DRSC20517	3.32e6	3.75e6	3.70e6
39	Hmt-1	DRSC15555	3.45e6	3.87e6	3.96e6
40	alphaTub84B	DRSC12622	3.28e6	3.80e6	3.72e6
41	E(spl)m2-BFM	DRSC16991	2.97e6	3.59e6	3.62e6
42	E(spl)m2-BFM	DRSC23082	3.64e6	4.10e6	4.16e6
43	Obp99a	DRSC15303	3.41e6	3.84e6	3.84e6
44	Esyt2	DRSC16082	3.59e6	4.09e6	4.05e6
45	CG11779	DRSC14384	3.40e6	3.89e6	3.83e6
46	CG12375	DRSC02163	3.51e6	4.04e6	3.91e6
47	l(2)SH0834	DRSC02854	3.54e6	4.01e6	4.02e6
48	Or13a	DRSC20265	3.44e6	3.96e6	3.83e6
49	CG5390	DRSC02855	3.66e6	3.93e6	4.36e6
50	T48	DRSC16878	3.56e6	4.06e6	4.01e6
51	CG5846	DRSC02904	3.49e6	4.03e6	3.86e6
52	CG33286	DRSC11691	3.56e6	4.02e6	4.05e6
53	cv-d	DRSC16522	3.47e6	3.91e6	3.95e6
54	cv-d	DRSC16524	3.42e6	3.89e6	3.85e6
55	cv-d	DRSC16526	3.72e6	4.19e6	4.25e6
56	Vmat	DRSC06961	3.82e6	4.31e6	4.28e6
57	Vmat	DRSC06962	3.49e6	4.00e6	3.88e6
58	Vmat	DRSC22223	3.47e6	3.98e6	3.92e6
59	Marf1	DRSC03747	3.66e6	4.17e6	4.12e6
60	Marf1	DRSC03774	3.45e6	4.02e6	3.82e6
61	CanB2	DRSC07355	2.02e6	4.16e6	
62	wntD	DRSC16423	3.50e6	4.02e6	3.93e6
63	CG17234	DRSC00490	3.43e6	3.97e6	3.78e6
64	CG13947	DRSC00365	3.70e6	4.13e6	4.30e6
65	CG31342	DRSC15349	3.47e6	3.96e6	3.88e6
66	CG31342	DRSC16246	3.49e6	3.78e6	4.14e6
67	Npc1a	DRSC03378	3.47e6	4.19e6	3.66e6
68	CG3732	DRSC04410	3.57e6	4.18e6	4.20e6
69	cag	DRSC07587	3.40e6	3.90e6	3.84e6
70	Grik	DRSC15846	3.56e6	4.05e6	4.03e6
71	Grik	DRSC15847	3.39e6	3.81e6	3.92e6
72	CG46339	DRSC14136	3.65e6	4.17e6	4.07e6
73	CG14384	DRSC14842	3.46e6	3.81e6	4.03e6
74	Lint-O	DRSC18468	3.41e6	3.91e6	3.84e6
75	CG1537	DRSC19662	3.79e6	4.32e6	4.20e6
76	ninaA	DRSC00830	3.47e6	3.64e6	4.16e6
77	Cap-D2	DRSC15401	3.46e6	3.86e6	3.99e6
78	CG9123	DRSC20156	3.66e6	4.22e6	4.04e6
79	l(2)k05819	DRSC00826	3.60e6	4.08e6	4.09e6
80	CG33155 + mRpL53	DRSC05461	3.61e6	4.07e6	4.06e6
81	Ugt307A1	DRSC02138	3.42e6	3.88e6	3.86e6
82	CG18234	DRSC10309	3.63e6	4.16e6	4.05e6
83	CG3104	DRSC00567	3.34e6	3.80e6	3.70e6
84	CG31008	DRSC14028	3.49e6	3.94e6	3.98e6
85	Theg	DRSC16023	3.36e6	3.81e6	3.84e6
86	Zip99C	DRSC16320	3.81e6	4.31e6	4.32e6
87	Cad74A	DRSC10636	3.50e6	4.00e6	3.92e6
